System: human peripheral blood leukocyte
Test: inhibition of H2O2 release from human peripheral blood leukocyte
Type: cell-based
Settings: OD 610 nm, control 0.672
Protocol: 10 ml venous blood was taken from healthy people, and heparin sodium was added for anticoagulation. 10 ml HAS buffer (comprising RPMI 1640+10 mM HEPES+1.2 mM CaCl2+1.0 mM MgCl2+1% HAS, pH 7.4) was added into the blood and mixed. Leukocyte separation solution (Sangon) was charged into a sterile centrifuge tube, and whole blood mixture of the same volume was added slowly, and then centrifuged at 2000 rpm for 15 min. Leukocyte solution was taken from the interface and appropriate 1640 culture medium was added, centrifuged for 10 min, and washed twice. The supernatant was discarded, and appropriate HAS Buffer was added for resuspending the precipitate so as to prepare leukocyte suspension. The cell density was counted and adjusted to 4×10^7/ml. The product was separated at 37° C. and used within an hour.
Coating the 24-well plate with Hank's solution comprising 50% fetal bovine serum and culturing at 37 for 60 min; washing the plate with 0.15 M NaCl twice; diluting the cells to 6.0×10^6/ml with the buffer solution for release assay, adding cells, and culturing at 37 for 5 min; adding FMLP to the final concentration of 250 nM; adding TNHH samples at different concentrations and culturing at 37 for 60 min; pipetting the cell suspension, centrifuging at 8000×g for 3 min, and collecting the supernatant. Adding the supernatant into multiple-wells of a 96-well ELISA plate, adding 1 N NaOH (25 μl) for stopping the reaction, and determining the OD at 610 nm wavelength. Calculating the IC50 value of TNHH for inhibiting H2O2 release, and using the standard H2O2 solution as a control.

B1: TNHH: recombinant chimeric protein of neutrophil inhibitory factor and hirugen, Met-NIF-GGGGG-FPRPGSGG-Hirugen (SEQ ID NO: 3), expressed in E. coli (protein)
chain: MNEHNLRCPQNGTEMPGFNDSIRLQFLAMHNGYRSKLALGHISITEESESDDDDDFGFLPDFAPRASKMRYLEYDCEAEKSAYMSARNCSDSSSPPEGYDENKYIFENSNNISEAALKAMISWAKEAFNLNKTKEGEGVLYRSNHDISNFANLAWDAREKFGCAVVNCPLGEIDDETNHDGETYATTIHVVCHYPKINKTEGQPIYKVGTPCDDCSEYTKKADNTTSADPVCIPDDGVCFIGSKADYDSKEFYRFRELGGGGGFPRPGSGGNGDFEEIPEEYL
modifications: N-terminal Met
Question: What does the source list for B1?
Answer: Average OD value (TNHH 0.781 μg/ml): 0.681; Average OD value (TNHH 1.562 μg/ml): 0.628; Average OD value (TNHH 3.125 μg/ml): 0.519; Average OD value (TNHH 6.25 μg/ml): 0.402; Average OD value (TNHH 12.5 μg/ml): 0.317; Average OD value (TNHH 25 μg/ml): 0.259; Average OD value (TNHH 50 μg/ml): 0.135; Average OD value (TNHH 100 μg/ml): 0.121
